# According to the supplement of paper PMC12067093, “Discovery and optimisation of a covalent ligand for TRIM25 and its application to targeted protein ubiquitination” (Chemical Science, 2025):
# Protein sequences, listed by entry. Tags and fused reporters are not part of them. Lines headed by an entry give the natural chain unless they say otherwise; changes in a name come on top.
# UniProt O43172: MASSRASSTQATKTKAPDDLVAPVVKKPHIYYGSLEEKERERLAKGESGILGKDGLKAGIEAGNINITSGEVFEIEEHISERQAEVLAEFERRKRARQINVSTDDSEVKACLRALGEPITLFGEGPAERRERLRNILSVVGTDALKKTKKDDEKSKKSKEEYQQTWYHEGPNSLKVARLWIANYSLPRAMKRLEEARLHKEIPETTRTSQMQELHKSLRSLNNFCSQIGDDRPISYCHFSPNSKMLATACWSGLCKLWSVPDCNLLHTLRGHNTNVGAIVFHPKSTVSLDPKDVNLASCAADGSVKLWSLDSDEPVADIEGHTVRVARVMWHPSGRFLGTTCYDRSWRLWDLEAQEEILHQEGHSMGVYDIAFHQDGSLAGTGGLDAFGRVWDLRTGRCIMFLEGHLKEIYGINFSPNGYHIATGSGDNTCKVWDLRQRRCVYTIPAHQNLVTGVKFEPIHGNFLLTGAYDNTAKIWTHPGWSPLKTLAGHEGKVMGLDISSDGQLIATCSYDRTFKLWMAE
# UniProt P78527, whole entry, looked up: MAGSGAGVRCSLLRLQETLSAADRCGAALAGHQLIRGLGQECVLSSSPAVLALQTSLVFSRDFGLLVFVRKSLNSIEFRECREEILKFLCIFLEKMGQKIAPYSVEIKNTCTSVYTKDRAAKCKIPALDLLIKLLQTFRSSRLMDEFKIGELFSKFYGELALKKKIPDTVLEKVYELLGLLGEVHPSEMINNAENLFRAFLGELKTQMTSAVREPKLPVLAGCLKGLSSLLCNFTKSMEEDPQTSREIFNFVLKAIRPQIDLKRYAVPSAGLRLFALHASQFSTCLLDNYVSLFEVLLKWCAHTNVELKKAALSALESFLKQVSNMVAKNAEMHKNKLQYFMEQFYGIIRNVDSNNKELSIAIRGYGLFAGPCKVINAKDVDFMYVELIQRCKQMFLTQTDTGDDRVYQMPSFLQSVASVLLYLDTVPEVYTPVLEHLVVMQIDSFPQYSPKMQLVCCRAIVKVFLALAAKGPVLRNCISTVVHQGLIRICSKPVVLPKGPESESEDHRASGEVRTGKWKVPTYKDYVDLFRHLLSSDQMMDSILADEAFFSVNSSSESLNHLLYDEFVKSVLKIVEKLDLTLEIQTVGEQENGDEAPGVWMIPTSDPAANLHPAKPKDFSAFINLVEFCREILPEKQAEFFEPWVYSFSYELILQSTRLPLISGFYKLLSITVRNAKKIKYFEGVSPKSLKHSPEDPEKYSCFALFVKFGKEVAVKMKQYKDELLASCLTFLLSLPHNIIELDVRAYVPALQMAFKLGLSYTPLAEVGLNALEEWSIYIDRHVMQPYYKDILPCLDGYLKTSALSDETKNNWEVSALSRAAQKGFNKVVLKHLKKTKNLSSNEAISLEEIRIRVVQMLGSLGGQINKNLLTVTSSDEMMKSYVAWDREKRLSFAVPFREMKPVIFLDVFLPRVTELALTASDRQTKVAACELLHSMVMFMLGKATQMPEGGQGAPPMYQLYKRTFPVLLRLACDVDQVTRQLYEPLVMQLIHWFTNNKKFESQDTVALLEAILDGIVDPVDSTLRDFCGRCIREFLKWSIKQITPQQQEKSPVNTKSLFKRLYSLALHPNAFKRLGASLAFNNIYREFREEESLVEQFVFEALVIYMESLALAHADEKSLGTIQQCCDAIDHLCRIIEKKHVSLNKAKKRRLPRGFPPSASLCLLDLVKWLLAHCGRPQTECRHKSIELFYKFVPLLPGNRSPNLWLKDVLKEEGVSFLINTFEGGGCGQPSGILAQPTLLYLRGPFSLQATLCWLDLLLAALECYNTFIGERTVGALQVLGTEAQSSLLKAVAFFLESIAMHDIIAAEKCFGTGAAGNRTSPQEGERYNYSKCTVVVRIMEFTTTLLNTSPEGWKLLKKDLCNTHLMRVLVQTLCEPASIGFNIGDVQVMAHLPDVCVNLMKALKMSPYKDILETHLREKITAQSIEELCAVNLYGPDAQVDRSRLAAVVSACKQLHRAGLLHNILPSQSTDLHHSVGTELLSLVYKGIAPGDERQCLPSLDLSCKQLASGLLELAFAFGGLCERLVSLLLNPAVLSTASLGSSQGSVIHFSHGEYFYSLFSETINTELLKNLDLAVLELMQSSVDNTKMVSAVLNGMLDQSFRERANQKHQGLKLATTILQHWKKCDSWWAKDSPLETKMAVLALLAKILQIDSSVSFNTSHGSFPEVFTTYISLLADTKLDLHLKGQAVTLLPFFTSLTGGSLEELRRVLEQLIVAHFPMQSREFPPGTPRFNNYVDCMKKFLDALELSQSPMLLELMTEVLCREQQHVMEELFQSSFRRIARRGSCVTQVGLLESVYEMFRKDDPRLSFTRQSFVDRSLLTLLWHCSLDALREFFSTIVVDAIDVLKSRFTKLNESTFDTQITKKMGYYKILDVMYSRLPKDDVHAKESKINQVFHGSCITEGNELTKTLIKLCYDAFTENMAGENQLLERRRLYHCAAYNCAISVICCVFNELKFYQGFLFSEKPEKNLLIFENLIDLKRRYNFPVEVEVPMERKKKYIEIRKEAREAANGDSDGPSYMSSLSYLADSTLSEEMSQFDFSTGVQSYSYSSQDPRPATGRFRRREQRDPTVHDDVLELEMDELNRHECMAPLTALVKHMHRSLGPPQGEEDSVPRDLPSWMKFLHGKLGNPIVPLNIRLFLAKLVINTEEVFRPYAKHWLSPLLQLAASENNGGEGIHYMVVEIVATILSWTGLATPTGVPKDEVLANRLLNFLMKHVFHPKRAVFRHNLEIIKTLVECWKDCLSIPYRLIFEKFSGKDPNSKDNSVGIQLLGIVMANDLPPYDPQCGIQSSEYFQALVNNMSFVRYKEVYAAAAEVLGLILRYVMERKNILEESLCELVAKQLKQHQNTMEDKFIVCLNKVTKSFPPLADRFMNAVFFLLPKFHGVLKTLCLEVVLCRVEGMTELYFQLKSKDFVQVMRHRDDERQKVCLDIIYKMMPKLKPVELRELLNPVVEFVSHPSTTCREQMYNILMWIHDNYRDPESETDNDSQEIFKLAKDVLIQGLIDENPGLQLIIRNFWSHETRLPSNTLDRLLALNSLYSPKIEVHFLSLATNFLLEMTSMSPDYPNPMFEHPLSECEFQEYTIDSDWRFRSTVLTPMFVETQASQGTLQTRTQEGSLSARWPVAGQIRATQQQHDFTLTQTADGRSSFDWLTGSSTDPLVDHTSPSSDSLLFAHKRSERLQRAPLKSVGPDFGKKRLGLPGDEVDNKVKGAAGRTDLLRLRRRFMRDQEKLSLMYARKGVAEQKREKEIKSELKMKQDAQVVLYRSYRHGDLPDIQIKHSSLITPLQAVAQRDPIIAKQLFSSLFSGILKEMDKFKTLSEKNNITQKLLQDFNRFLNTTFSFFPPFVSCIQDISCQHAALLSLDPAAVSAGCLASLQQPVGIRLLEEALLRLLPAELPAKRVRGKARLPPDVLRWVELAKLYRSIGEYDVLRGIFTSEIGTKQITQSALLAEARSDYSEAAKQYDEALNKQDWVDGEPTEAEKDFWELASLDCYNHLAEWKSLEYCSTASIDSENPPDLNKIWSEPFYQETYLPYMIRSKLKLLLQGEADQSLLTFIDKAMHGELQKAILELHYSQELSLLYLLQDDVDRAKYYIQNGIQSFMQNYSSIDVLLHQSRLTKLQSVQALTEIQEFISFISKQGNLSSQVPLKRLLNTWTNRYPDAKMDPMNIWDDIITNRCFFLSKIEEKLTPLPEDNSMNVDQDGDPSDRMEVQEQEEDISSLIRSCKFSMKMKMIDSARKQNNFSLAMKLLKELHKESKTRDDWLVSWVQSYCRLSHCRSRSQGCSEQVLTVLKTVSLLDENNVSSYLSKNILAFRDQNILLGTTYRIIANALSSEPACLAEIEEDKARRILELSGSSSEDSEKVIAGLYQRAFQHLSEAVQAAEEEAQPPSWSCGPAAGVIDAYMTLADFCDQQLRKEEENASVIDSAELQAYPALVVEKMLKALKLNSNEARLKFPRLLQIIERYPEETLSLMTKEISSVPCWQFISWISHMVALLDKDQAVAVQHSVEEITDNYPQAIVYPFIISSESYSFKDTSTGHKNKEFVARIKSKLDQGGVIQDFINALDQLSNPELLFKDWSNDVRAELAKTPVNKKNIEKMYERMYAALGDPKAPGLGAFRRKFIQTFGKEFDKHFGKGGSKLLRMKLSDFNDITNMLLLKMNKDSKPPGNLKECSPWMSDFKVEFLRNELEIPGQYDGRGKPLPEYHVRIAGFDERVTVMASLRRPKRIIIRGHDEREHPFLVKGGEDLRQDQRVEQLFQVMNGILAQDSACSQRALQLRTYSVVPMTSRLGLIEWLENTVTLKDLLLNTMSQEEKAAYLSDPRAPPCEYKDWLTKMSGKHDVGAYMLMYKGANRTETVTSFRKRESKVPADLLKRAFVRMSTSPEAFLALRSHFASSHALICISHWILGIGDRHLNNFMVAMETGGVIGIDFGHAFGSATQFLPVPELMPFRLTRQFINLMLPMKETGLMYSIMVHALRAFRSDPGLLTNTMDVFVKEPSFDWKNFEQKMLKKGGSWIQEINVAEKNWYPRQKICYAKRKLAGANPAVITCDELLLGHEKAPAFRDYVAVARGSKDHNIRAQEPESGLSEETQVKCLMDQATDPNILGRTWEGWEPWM
# UniProt P11908: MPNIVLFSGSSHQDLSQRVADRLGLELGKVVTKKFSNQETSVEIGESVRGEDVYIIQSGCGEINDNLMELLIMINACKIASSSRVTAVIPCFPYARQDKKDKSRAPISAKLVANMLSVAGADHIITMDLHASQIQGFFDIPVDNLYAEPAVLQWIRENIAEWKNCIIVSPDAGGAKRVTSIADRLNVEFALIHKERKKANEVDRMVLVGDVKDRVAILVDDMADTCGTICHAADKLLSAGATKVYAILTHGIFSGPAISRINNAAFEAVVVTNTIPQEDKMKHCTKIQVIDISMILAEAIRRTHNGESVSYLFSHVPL
# UniProt O94906: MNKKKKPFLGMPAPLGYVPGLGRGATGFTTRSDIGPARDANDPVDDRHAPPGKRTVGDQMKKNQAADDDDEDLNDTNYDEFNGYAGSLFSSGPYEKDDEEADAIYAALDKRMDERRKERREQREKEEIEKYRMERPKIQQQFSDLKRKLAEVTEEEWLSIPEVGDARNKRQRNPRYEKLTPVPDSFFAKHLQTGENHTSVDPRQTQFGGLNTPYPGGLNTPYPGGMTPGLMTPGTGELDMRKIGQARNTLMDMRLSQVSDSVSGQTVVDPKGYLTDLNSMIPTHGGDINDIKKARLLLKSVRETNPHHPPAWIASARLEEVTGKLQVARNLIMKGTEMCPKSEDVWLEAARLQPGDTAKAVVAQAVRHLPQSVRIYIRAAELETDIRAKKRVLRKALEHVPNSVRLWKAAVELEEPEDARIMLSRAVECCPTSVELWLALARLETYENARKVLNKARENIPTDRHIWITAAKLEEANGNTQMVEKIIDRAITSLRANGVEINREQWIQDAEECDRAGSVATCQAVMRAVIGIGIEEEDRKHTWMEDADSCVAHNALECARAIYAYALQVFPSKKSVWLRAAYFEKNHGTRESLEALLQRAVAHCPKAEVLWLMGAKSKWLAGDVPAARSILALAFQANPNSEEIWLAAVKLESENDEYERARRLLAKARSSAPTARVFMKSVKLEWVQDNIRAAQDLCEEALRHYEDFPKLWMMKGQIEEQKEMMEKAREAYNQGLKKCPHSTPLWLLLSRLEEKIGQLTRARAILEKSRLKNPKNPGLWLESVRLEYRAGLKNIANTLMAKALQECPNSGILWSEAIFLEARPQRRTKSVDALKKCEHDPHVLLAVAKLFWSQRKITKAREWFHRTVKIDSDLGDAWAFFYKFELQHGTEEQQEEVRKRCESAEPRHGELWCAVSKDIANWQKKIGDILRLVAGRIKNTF
# The list shows a part of the results.
# Compound: Cc1cc(ccc1-c1ccccc1)C(=O)N1CCCN(CC1)C(=O)CCl [compound 10]
# Test: probe-labelled cysteine peptide fold change vs DMSO (competition) (log2 fold change); higher = less target engagement (more negative = stronger competition)
# Details: 10 µM; THP-1; incubation time: 4 h
# 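Note: competitive profiling in live THP-1 cells: cysteine peptides tagged with an iodoacetamide desthiobiotin (IA-DTB) probe, intensity after compound treatment relative to DMSO-treated cells.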
row,Target,probe-labelled cysteine peptide fold change
1,PRPF4_O43172_441_CVYTIPAHQNLVTGVK (UniProt O43172),0.171
2,PRKDC_P78527_457_MQLVCCR (UniProt P78527),-0.451
3,PRMT7_Q9NVM4_136_HSTEVTVGPEGDMPCR (UniProt Q9NVM4),-0.288
4,PRPS2_P11908_165_NCIIVSPDAGGAK (UniProt P11908),0.241
5,PRUNE1_Q86TP1_303+313_QLAIFCPHVALQTTICEVLER (UniProt Q86TP1),-0.0796
6,PRKDC_P78527_3001_DFWELASLDCYNHLAEWK (UniProt P78527),0.0135
7,PRKAR1A_P10644_18_SLRECELYVQK (UniProt P10644),-0.355
8,PRPF6_O94906_901_CESAEPR (UniProt O94906),-0.146
9,PSMA2_P25787_213_ESFEGQMTEDNIEVGICNEAGFRR (UniProt P25787),-0.13
10,PRPF39_Q86UA1_413_ACTIHLPK (UniProt Q86UA1),0.0143
11,PRKDC_P78527_1176_WLLAHCGR (UniProt P78527),-0.53
12,PRPF4_O43172_399_CIMFLEGHLK (UniProt O43172),0.0903
13,PRKCA_P17252_406_VLALLDKPPFLTQLHSCFQTVDR (UniProt P17252),0.213
14,PRKDC_P78527_4106_CLMDQATDPNILGR (UniProt P78527),-0.313
15,PRKDC_P78527_1135_SLGTIQQCCDAIDHLCR (UniProt P78527),0.172
16,PSD4_Q8NDX1_32_LPDHPQPMEILNLYLGDSLEPHPGECPR (UniProt Q8NDX1),-0.0723
17,PRPS2_P11908_165_NCIIVSPDAGGAKR (UniProt P11908),0.121
18,PRKDC_P78527_3281_DDWLVSWVQSYCR (UniProt P78527),0.0731
19,PRKCB_P05771_53_QPTFCSHCTDFIWGFGK (UniProt P05771),-0.215

# Reprinted at random: two entries already listed.
row,Target,probe-labelled cysteine peptide fold change
11,PRKDC_P78527_1176_WLLAHCGR (UniProt P78527),-0.53
15,PRKDC_P78527_1135_SLGTIQQCCDAIDHLCR (UniProt P78527),0.172

# Next results follow:

row,Target,probe-labelled cysteine peptide fold change
1,PRMT3_O60678_264_VVLDVGCGTGILSMFAAK (UniProt O60678),0.0608
2,PSMA1_P25786_182_HMSEFMECNLNELVK (UniProt P25786),0.212
3,PRPF19_Q9UMS4_114_QELSHALYQHDAACR (UniProt Q9UMS4),0.0823
4,PRKDC_P78527_478_NCISTVVHQGLIR (UniProt P78527),0.0635
5,PRKDC_P78527_223_LPVLAGCLK (UniProt P78527),0.0967
6,PRPF6_O94906_513_ANGVEINREQWIQDAEECDR (UniProt O94906),-0.364
7,PRKDC_P78527_491_ICSKPVVLPK (UniProt P78527),-0.0652
8,PRMT7_Q9NVM4_639+640_RPGQSHAAVLWMEYHLTPECTLSTGLLEPADPEGGCCWNPHCK (UniProt Q9NVM4),-0.354
9,PRMT9_Q6P2P2_476_IQSISVLGLECEMDVAK (UniProt Q6P2P2),0.196
10,PRKDC_P78527_1742_FNNYVDCMK (UniProt P78527),0.239
11,PRKDC_P78527_795_DILPCLDGYLK (UniProt P78527),0.0845
12,PRPF6_O94906_739_KCPHSTPLWLLLSR (UniProt O94906),-0.167
13,PRKDC_P78527_1791_RGSCVTQVGLLESVYEMFR (UniProt P78527),-0.142
14,PRKDC_P78527_1183_WLLAHCGRPQTECR (UniProt P78527),-0.312
15,PRIM1_P49642_170_GVHCWVCDESVR (UniProt P49642),0.179
16,PRPF19_Q9UMS4_351+355_VTDETSGCSLTCAQFHPDGLIFGTGTMDSQIK (UniProt Q9UMS4),0.125
17,PRPF38A_Q8NAV1_158_VCDIILPR (UniProt Q8NAV1),-0.0334
18,PRKCI_P41743_507_LGCHPQTGFADIQGHPFFR (UniProt P41743),-0.164
19,PRPF6_O94906_807_ALQECPNSGILWSEAIFLEAR (UniProt O94906),0.317
